# Laboratory results as given in ChEMBL document CHEMBL1127882, “Synthesis of coumarins as subtype-selective inhibitors of monoamine oxidase” (Bioorg Med Chem Lett, 1994).
# Target: T1, Amine oxidase [flavin-containing] B (Rattus norvegicus, UniProt P19643)
# T1 sequence (P19643 whole entry): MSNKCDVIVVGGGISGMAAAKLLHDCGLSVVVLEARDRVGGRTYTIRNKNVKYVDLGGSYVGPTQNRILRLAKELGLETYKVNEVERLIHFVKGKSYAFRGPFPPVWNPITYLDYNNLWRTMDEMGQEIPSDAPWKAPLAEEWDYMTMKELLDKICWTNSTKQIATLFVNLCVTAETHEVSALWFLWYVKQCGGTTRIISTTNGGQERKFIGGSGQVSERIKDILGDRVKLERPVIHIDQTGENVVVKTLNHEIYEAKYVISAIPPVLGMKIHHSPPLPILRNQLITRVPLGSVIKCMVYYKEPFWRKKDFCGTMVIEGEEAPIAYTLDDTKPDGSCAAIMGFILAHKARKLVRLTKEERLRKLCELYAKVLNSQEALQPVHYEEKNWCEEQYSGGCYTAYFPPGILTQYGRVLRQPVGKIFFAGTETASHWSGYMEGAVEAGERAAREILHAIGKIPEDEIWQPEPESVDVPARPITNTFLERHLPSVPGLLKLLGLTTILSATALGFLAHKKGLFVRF
# Experiment: In vitro inhibitory activity against monoamine oxidase B (MAO-B) in rat brain homogenate.
# Type: tissue-based
compound,measurement,value
Cc1ccc(COc2ccc3c(C)c(C)c(=O)oc3c2)cc1,IC50,0.9 nM
